Assay results from paper doi:10.1101/402123 (bioRxiv, 2018).
Positions count from the first letter of the chain named. Names may count otherwise. These are yes or no findings as the source states them, for the method shown. For part of these data: In cells and extracts the contact can be indirect. Some results given as binding are weak or reduced against the parent protein; the word gives no strength. For part of these data: Sequences can lack the tags named with a protein.

T1: fluorescein-labeled BP230 peptide 26-55 (human, UniProt Q03001-8 26-55, N-terminal fluorescein)
T1 peptide (looked up): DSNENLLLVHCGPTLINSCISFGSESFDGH

T2: GST-β4 (1436-1666)-T1663R (human) (UniProt P16144)
T2 sequence: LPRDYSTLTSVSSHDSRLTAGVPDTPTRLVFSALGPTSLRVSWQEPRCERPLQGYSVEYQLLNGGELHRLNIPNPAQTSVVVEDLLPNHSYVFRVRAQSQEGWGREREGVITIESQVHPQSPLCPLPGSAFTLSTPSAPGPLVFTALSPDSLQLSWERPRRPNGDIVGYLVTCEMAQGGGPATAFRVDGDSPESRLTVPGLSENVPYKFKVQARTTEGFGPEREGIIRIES

B1: β4-CS-FnIII-3,4 (1436-1666) R1621E/D1623R (domain or fragment, UniProt P16144-2 1436-1666)
chain: T2 sequence with R186E, D188R, R228T
B2: β4-CS-FnIII-3,4 (1436-1666) I1661R (domain or fragment, UniProt P16144-2 1436-1666)
chain: T2 sequence with I226R, R228T
B3: β4-CS-FnIII-3,4 (1436-1666) S1637R/E1638R (domain or fragment, UniProt P16144-2 1436-1666)
chain: T2 sequence with S202R, E203R, R228T
B4: β4-CS-FnIII-3,4 (1436-1666) T1632R/P1634R (domain or fragment, UniProt P16144-2 1436-1666)
chain: T2 sequence with T197R, P199R, R228T
B5: β4-CS-FnIII-3,4 (1436-1666) E1628R/R1630E (domain or fragment, UniProt P16144-2 1436-1666)
chain: T2 sequence with E193R, R195E, R228T
B6: β4-CS-FnIII-3,4 (1436-1666) F1654R (domain or fragment, UniProt P16144-2 1436-1666)
chain: T2 sequence with F219R, R228T
B7: β4 FnIII-3 (1457-1548) (domain or fragment, UniProt P16144-2 1457-1548)
chain: VPDTPTRLVFSALGPTSLRVSWQEPRCERPLQGYSVEYQLLNGGELHRLNIPNPAQTSVVVEDLLPNHSYVFRVRAQSQEGWGREREGVITI
B8: β4 FnIII-4 (1572-1666) (domain or fragment, UniProt P16144-2 1572-1666)
chain: SAPGPLVFTALSPDSLQLSWERPRRPNGDIVGYLVTCEMAQGGGPATAFRVDGDSPESRLTVPGLSENVPYKFKVQARTTEGFGPEREGIITIES
B9: FLAG-BP230 (19-162) (domain or fragment, UniProt Q03001-8 19-162)
chain: TSTRTSLDSNENLLLVHCGPTLINSCISFGSESFDGHRLEMLQQIANRVQRDSVICEDKLILAGNALQSDSKRLESGVQFQNEAEIAGYILECENLLRQHVIDVQILIDGKYYQADQLVQRVAKLRDEIMALRNECSSVYSKGR
B10: FLAG-BP230 (19-162) S46D (domain or fragment, UniProt Q03001-8 19-162)
chain: B9 chain with S28D
B11: FLAG-BP230 (19-162) T39D (domain or fragment, UniProt Q03001-8 19-162)
chain: B9 chain with T21D
B12: FLAG-BP230 (19-162) S51D (domain or fragment, UniProt Q03001-8 19-162)
chain: B9 chain with S33D
B13: FLAG-BP230 (19-162) S49D (domain or fragment, UniProt Q03001-8 19-162)
chain: B9 chain with S31D
B14: FLAG-BP230 (19-162) S43D (domain or fragment, UniProt Q03001-8 19-162)
chain: B9 chain with S25D
B15: FLAG-BP230 (19-162) S27D (domain or fragment, UniProt Q03001-8 19-162)
chain: B9 chain with S9D

Biological target: T1, fluorescein-labeled BP230 peptide 26-55
Assay: fluorescence polarisation

| binding | Binder |
| --- | --- |
| binds weakly | B1 |
| binds weakly | B2 |
| binds weakly | B3 |
| binds weakly | B4 |
| binds weakly | B5 |
| binds weakly | B6 |
| no binding | B7 |
| no binding | B8 |

biological target: T2, GST-β4 (1436-1666)-T1663R (human); assay: pull-down

| binding | Binder |
| --- | --- |
| binds | B9 |
| no binding | B10 |
| binds weakly | B11 |
| binds | B12 |
| binds | B13 |
| binds | B14 |
| binds | B15 |
